The results in this text go back to PubChem BioAssay AID1347423 (Functional Genomics Laboratory (NCATS/FGL), 2020).

In all, about 52,000 sequences went through this assay and about 210 (0.4%) were called active.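 The calls were made as follows: active = gene whose silencing raises cell survival under the drug, median off-target-corrected z-score across its silencing RNAs 2 or more; inactive = the rest.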 Some of the results follow.

This assay is described as follows: Resistance to Poly (ADP-Ribose) Polymerase inhibitor: Gene Identification via Genome-wide siRNA Screen. To be noted: mouse BRCA2 R2336H ES cells, olaparib, CellTiter-Glo viability; hits give high values. Put shortly: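 Mouse BRCA2 R2336H ES cells were reverse-transfected with siRNA (20 nM final), treated at 48 h with 500 nM olaparib, and read by CellTiter-Glo after 72 h. Scores: MAD-based z per siRNA, median per gene, seed off-target correction.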
Background: Cellular ATP, detected with luciferase, serves as a proxy for viable cell number.
CCAAGUCCAGCCUUUUGGUTT against Bucs1: the z-score is inactive: 0.574. The value for CGACUAGAGUUGUGUGAUATT against Uqcrh was inactive: 0.614; that for GGAUAAGGUAGAAUUACUGTT against Slc26a4 was inactive: -1.34. The value for GGAUGAUUCAUUCAGUGAUTT against Adcy9 was inactive: 0.0186; that for GGGACAGAUACAGUUCAUGTT against Zan was inactive: -1.39. For the sequence “CCAUAUUGAGGAAAAAUCCTT against 2810426N06Rik”, the z-score is inactive: -0.214.

Consider CGGGAUAGACUAUAAGACUTT against Rab40c, for which the z-score is inactive: 0.0159. The value for “GGUUUUCACCAUGCAUCAGTT against 4933412H03Rik” was inactive: 1.8; that for GGGCUAAAGCCUUCAACACTT against Olfr923 was inactive: 0.197; that for “GCAGAAGAAACAGCUGUCUTT against 1110007F12Rik” was inactive: 0.0357. Turning to “GCUUGUGGUAAAUGAGGAGTT against 1700024G13Rik”, the z-score was inactive: 0.774. The value for “CCUACGACCUGAAGAUAGCTT against 2600005O03Rik” was inactive: -1.46.

As to GGGAAUCUCUGUAUGUUGUTT against Letm1, the z-score is inactive: 0.995. For GCAAGAAGUAUUUUCAGUATT against Galnt4, the z-score is inactive: -0.243. The value for GGAAACAGAGCAAGGAAAATT against Gas7 was inactive: -0.882.

With GGAGACCAAAAAGAAAUAATT against Cmas, the z-score is inactive: 0.448. The value for CGGAGGAAGGCAAGAUGUATT against Tead4 was inactive: -0.398; that for CGAGCUUUCACUGCUACAGTT against Ppargc1b was inactive: 1.03.

For GGAAUUAAAUGCCAGUACGTT against Ankfy1, the z-score was inactive: 0.511. The value for “GGUAAUUUAAUGACACAUGTT against A130079P16Rik” was inactive: 0.374; that for GGAAAUUUCAUGAACCCUCTT against Aadat was inactive: 0.434. For GCCCAAGGUGAAUCUGUCATT against Tusc5, the z-score was inactive: -0.381.

As to GGUGAGGAACUUCUGGAAUTT against Klra5, the z-score was inactive: -0.161. The value for “GCUAAGGACACAAAAUCCATT against 1810073N04Rik” was inactive: 0.378; that for GGACAUCAUUCAUGACCCUTT against Rpl8 was inactive: -3.05. Turning to GGAGUUGGUACCUUUCCGATT against Thap4, the z-score was inactive: -0.883. The value for CGGAAUGAUCACGACCGAUTT against AI851076 was inactive: -0.772. The value for GGCUUCAAGGACUUUACAATT against Mefv was inactive: 0.895. The value for “GGUUCUAUAGGGCUCCGAATT against 1810059G22Rik” was inactive: 0.878; that for GGAUUUCUGACCAUUGAGCTT against Mrgprf was inactive: 0.341; that for “GGUAAUUGCCAUAGAAAAUTT against 1600014E20Rik” was inactive: -0.496. As to GGAAAGAACAACAAAGGAGTT against Snx9, the z-score was inactive: 0.254. The value for “GCCAUAACCGACUACGAGATT against 9530051K01Rik” was inactive: 0.0604.

With CCUUGAGAUUUUUAUAAGCTT against Stx5a, the z-score is inactive: 1.82.

CCAGUCACUGACAAUAAGATT against Kcnj1: the z-score is inactive: 0.115. The value for CGACUAUAUGCAGAAGUACTT against Cdc27 was inactive: -2.97. The value for “GGUAAUAUAUGACUCCAGCTT against 2310042G06Rik” was inactive: -0.65.

With GCUCACUAUGUAAAGAGAATT against Itpk1, the z-score was inactive: -0.284. In the case of GGUUUUCAAAGAUCUCUAGTT against Efnb2, the z-score was inactive: -0.183.

Regarding “CCUGGGUUGGAUAAAACUUTT against 6030458C11Rik”, the z-score was inactive: -0.521. The value for “GGACGAUGGAAUUAUGAGGTT against 4921524P20Rik” was inactive: 0.102; that for GGCAUGAUCAUAAUUGGAUTT against Mto1 was inactive: 0.63; that for GGGCUUCAGUGAAGUUGUCTT against Cml3 was inactive: -2.3. The value for “GGACAUAUUGGAAACAGAATT against 5033414D02Rik” was inactive: 1.17; that for GGAUUGUGGUUGAACACAUTT against Tmem33 was inactive: 0.924. The value for GGGUAUGGUGACAGAUAAATT against Cpz was inactive: -0.169.

In the case of GCUAGGAAUGCUGAACACUTT against Sh3gl3, the z-score is inactive: -1.01. For the sequence CGGUUGAAGAUUGAUUUUGTT against Gnai3, the z-score is inactive: 0.75. With “GGUCCAUGCUCUCAUGAGUTT against 4933430F08Rik”, the z-score was inactive: 0.00145. The value for GGGAAUCGAGAAAAUGGAUTT against Prkg2 was inactive: 0.316. Consider GGAGAUGCCCAAUGUUUUCTT against Ehd1, for which the z-score was inactive: -0.27. In the case of CCCAUCUCGAAUGAAAGCCTT against Clecsf1, the z-score was inactive: -0.646. The value for GCUUCCUCAAUUACUAUGCTT against Apbb2 was inactive: 0.176. The value for GGCUAAAGGAGAACAACAUTT against Bub3 was inactive: -0.585; that for GCCUUGGCAUUAUAUAUGGTT against Prom1 was inactive: 0.663; that for “GGGCUUCGAUGCUAUCAUCTT against 6430573F11Rik” was inactive: 0.734.

GCAUUGGCAUGAUGGACCATT against Slc39a1: the z-score was inactive: 1.02. The value for GCCACAUGCUUCAAUAGUGTT against Gluld1 was inactive: 0.506; that for GCGCAAACAACACAUCGUCTT against Ccpg1 was inactive: -0.273; that for CCUUCCAGUAGUAAUUCAUTT against Hod was inactive: 1.04. The value for GGUCGCUAUUAAGAUCAUUTT against Mark4 was inactive: -1.39; that for “CUGGUUUUUAGUCUUUCAUTT against 4930471G03Rik” was inactive: 1.24.

Turning to GGACAACUUUGAGGAGAUGTT against Tubg2, the z-score was inactive: -0.53. The value for CCCAUAACAUUGGUGAUUATT against V1rf2 was inactive: 1.48; that for GACAAAACAAUUACCUACATT against Olfr806 was inactive: 0.0971; that for GCGAAAUUCGAGUUCGGUUTT against Col17a1 was inactive: 0.111.

On to “GGAGCUUUUUAUGUUUUAGTT against 1700047I17Rik”, for which the z-score was inactive: 0.887.

For the sequence GGAUUUCACUUGAGAAUGATT against Grem1, the z-score was inactive: -1.06.

Take GGACAUUCCCAAAGAAAAUTT against Usp29: the z-score is inactive: -0.101. GCCAAGCAUUACCAUACUUTT against Rab21: the z-score is inactive: 0.582. The value for GGACCACCGUGAUCAACAUTT against Ifitm2 was inactive: -1.33; that for GGACAAUGGGAGCUAUCGATT against Gpld1 was inactive: -0.373; that for GCGUAAAACUUCAAGAGCUTT against DXImx50e was inactive: 0.219. The value for CCGAGGUGAUUAGGAUAACTT against Traf3ip1 was inactive: -0.813; that for GGGACAUUCCUUAUCAUAATT against Pde3a was inactive: 0.174; that for GGCUGGACACUGAGAAAAATT against Adcy4 was inactive: -0.919. The value for GGGCAGAAGCUGUGAAAUCTT against BC037034 was inactive: 0.422. AACUAUGUCUGCUAUGUCATT against Ela2: the z-score is inactive: 0.739.

With CCCUUAUCUCAUGUGUUAATT against Olfr74, the z-score is inactive: 0.979.

Regarding GGUUCAGGUUCUUCUAAAATT against Cd109, the z-score was inactive: 0.632. The value for GGAAAAUCAAUACAUUGGATT against Pxk was inactive: -0.042; that for CCUUUAGGUUACAAAAACCTT against Pdgfd was inactive: 0.39; that for GCCUGUACAUGACGGAAAGTT against Bag4 was inactive: -0.395.

Take GGCUUAGAUCUACUAUUUCTT against Fv4: the z-score is inactive: 0.902. The value for CCUCGAAACUCAUUUCCAGTT against Prkch was inactive: -0.403. The value for CCAGCACUCGAAAAAGAUGTT against Pdzk8 was inactive: 0.548.

For the sequence “GGAGUUAGAUGCCCUCAAGTT against 1810073E21Rik”, the z-score is inactive: -0.0814. In the case of “GGUUUUCCAAAAAACACCCTT against 1700084J12Rik”, the z-score was inactive: 0.919. The value for GGCAACUGACUAGCUGAUUTT against Atp2a1 was inactive: 1.29.

For the sequence GGAUCCUCACAAUAAACUUTT against Sult2b1, the z-score is inactive: -0.204.

For GGUAAAUGUCUAGAAAUGGTT against Abcd2, the z-score was inactive: 0.484.

Turning to GGGAAUUUGGGCAUGAUCATT against Olfr44, the z-score was inactive: -3.04. The value for GGCGAGAAUUUCAUCGGGATT against Tulp1 was inactive: 0.635.

As to “GGAGAAGAUUUUCUGUAUCTT against C630015F21Rik”, the z-score was inactive: -0.509. The value for CGUCAACUCUACUGGACCATT against Grp was inactive: 1.46; that for “CCAAAGGUGACCACAGAUUTT against 6230401O10Rik” was inactive: 0.0847; that for GGGAAGAACAUCUCUGCUCTT against S100a3 was inactive: -1.37. The value for GGACAUGCUUAUCCUUUGUTT against Slc38a5 was inactive: -0.0803; that for GGGUGAAAUUUUUAAUCGGTT against Lbp was inactive: 0.477; that for GGAUCCUUCGGGUCUUAAATT against Kctd9 was inactive: -1.18. The value for GGAUGAUUCCAAGAUGCUATT against Lin28b was inactive: -0.268.

For the sequence GGAUGAAAGUCCUGGACAGTT against Gli3, the z-score is inactive: -0.309. For the sequence “GCUUAUAAAAGUGAAUCGGTT against 1190006E07Rik”, the z-score was inactive: -0.353. The value for GGUCUUCCAAGGUCAGAAGTT against Cyp2d10 was inactive: -0.139.
